# Laboratory results published in PubChem BioAssay AID662 (National Center for Advancing Translational Sciences (NCATS), 2007).
# The list shows a part of the results. Shown are side measurements of this screen, not its main read-out; they come without a call. Most of these compounds were active or inconclusive in the main read-out, so they are no random draw. Potencies come from curve fits of mixed quality, noted in brackets.
# Experiment: Cell signaling CRE-BLA (Fsk stim)
# Settings: CHO CRE-bla reporter (cAMP response element driving beta-lactamase), forskolin EC10, beta-lactamase ratio; measured here: 460 nm blue channel
# In short: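 The 460nm/530nm emission ratio after CCF4 loading defined %Activity, from which AC50 values were obtained. CRE-bla CHO cells received compound dilution series together with an EC10 level of NKH 477 for 3 hours at 37 degrees Celsius.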
row,Structure (SMILES),AC50
1,Cc1nnc(Nc2ccc3c(c2)OCO3)c2ccccc12,"0.631 µM [falling, full curve, poor fit]"
2,Cc1noc(C)c1-c1cncnc1NCc1ccccc1,"3.98 µM [rising, single point]"
3,c1cncc(-c2cc(NCc3cccs3)ncn2)c1,"12.6 µM [rising, partial curve]"
4,CCOC(=O)c1[nH]c(C)c(C(=O)OCC(=O)NC(=O)NC(C)(C)C)c1C,"0.501 µM [falling, partial curve]"
5,COCCCNC(=O)c1ccc(N2CCCC2)c(NS(=O)(=O)c2ccc(C)cc2)c1,"25.1 µM [rising, single point]"
6,CCCCn1nc(C(=O)N2CCc3ccccc32)c2ccccc2c1=O,"12.6 µM [rising, partial curve]"
7,CN1CCc2c(sc3c2c(NCc2ccco2)nc2nnnn23)C1,"25.1 µM [rising, single point]"
8,COc1ccccc1CCn1c(=O)c(CCc2ccccc2)nc2cncnc21,"10 µM [rising, partial curve]"
9,COc1ccc(-c2nc(CSCC(=O)NCc3ccco3)c(C)o2)cc1,"0.01 µM [falling, full curve, poor fit]"
10,Cc1cc(C)n(-c2nc3ccccc3nc2Nc2ccc3c(c2)OCO3)n1,"3.16 µM [rising, partial curve]"
11,N#Cc1nc(-c2ccco2)oc1NCc1cccnc1,"25.1 µM [rising, single point]"
12,COc1ccc2cc(CN(C(=O)Nc3ccccc3)C3CCCC3)c(=O)[nH]c2c1,"25.1 µM [rising, single point]"
13,Cc1ccccc1-c1cc(N2CCN(C)CC2)ncn1,"5.01 µM [rising, single point]"
14,O=C(Cn1cnc2c(cnn2-c2ccc(F)cc2)c1=O)NCc1ccco1,"3.16 µM [rising, partial curve]"
15,CCCCNC(=O)COC(=O)c1cc2c(C)nn(-c3ccccc3)c2s1,"2 µM [rising, single point]"
16,CCCOc1ccccc1C1CC(=O)Nc2cc3c(cc21)OCCO3 (stereo unspecified),"5.01 µM [rising, partial curve]"
17,COc1cccc(Cn2c(=O)c(-c3ccccc3)nc3cnc(N4CCNCC4)nc32)c1,"6.31 µM [rising, partial curve]"
18,O=C(Nc1cccnc1)c1cnn2cccnc12,"10 µM [rising, single point]"
19,Cn1ccnc1Sc1nc2ccccc2nc1NS(=O)(=O)c1ccccc1,"3.16 µM [falling, single point]"
20,CCCNC(=O)c1c(N)n(-c2cccc(OC)c2)c2nc3ccccc3nc12,"12.6 µM [rising, partial curve]"
21,CCC(=O)NC(=Nc1nc2ccccc2s1)NC(=O)CC,"25.1 µM [rising, single point]"
22,Cc1cc(O)c(C(C)(C)C)cc1Sc1cc(C(C)(C)C)c(O)cc1C,"7.94 µM [falling, full curve]"

row,Structure (SMILES),AC50
1,CCOc1cc2c(C#N)c(N3CCOCC3)nc(N)c2c(N)n1,"2.51 µM [rising, full curve]"
2,Cn1c(=O)cc(-c2ccccc2)c2ccccc21,"15.8 µM [rising, single point]"
3,CCC(=O)c1ccccc1OCCN1C(=O)NC(C)(C)C1=O,"20 µM [rising, single point]"
4,C[C@@]1(C(NC(=O)Cc2ccc(C(F)(F)F)cc2)c2ccc(-c3ccccc3)cc2)C[C@H]1C1CCCCC1 (stereo partly specified),"7.94 µM [rising, partial curve, poor fit]"
5,COC(=O)[C@@]1(Cc2ccc(F)cc2)[C@H]2c3cc(C(=O)N(C)C)n(Cc4ccc(O)c(OC)c4)c3C[C@H]2CN1C(=O)c1ccccc1,"0.158 µM [rising, full curve]"
6,CN(C)c1ncc2nc(-c3ccc(F)cc3)c(=O)n(C[C@H]3CCCO3)c2n1,"2.51 µM [rising, partial curve]"
7,Cc1ccc(-c2cc3nc(C)cc(NCc4ccco4)n3n2)cc1,"12.6 µM [rising, partial curve]"
8,CCCc1nc(SCC(=O)Nc2cc(C)on2)c2c(=O)n(C)c(=O)n(C)c2n1,"3.16 µM [rising, full curve]"
9,Cc1sc2nc(-c3cccs3)nc(N3CCCN(C)CC3)c2c1C,"10 µM [rising, single point]"
10,O=S(=O)(NCc1ccccc1)c1cnc[nH]1,"0.158 µM [falling, full curve, poor fit]"
11,O=C(CCCNS(=O)(=O)c1cccc2nsnc12)NC1CCCCC1,"0.1 µM [falling, full curve]"
12,CC1(c2cccs2)CC(c2cccs2)=C(C#N)C(=O)N1 (stereo unspecified),"0.00316 µM [rising, full curve, poor fit]"
13,CC(C)C[C@@H](CC(=O)N[C@@H](CCCN)CC(=O)N[C@@H]1CCCC[C@H]1C(=O)N[C@H](CC(=O)N[C@@H](CCC(=O)O)CC(=O)O)CC(C)C)NC(=O)[C@@H]1CCCC[C@H]1N,"7.94 µM [falling, full curve, poor fit]"
14,COc1ccc(S(=O)(=O)C(C#N)c2nc3ccccc3nc2N2CCCCC2)cc1 (stereo unspecified),"10 µM [rising, partial curve]"
15,Cc1cn(C2OC(COC(=O)c3ccccc3)C(O)C2O)c(=O)[nH]c1=O (stereo unspecified),"0.251 µM [falling, full curve, poor fit]"
16,COCCCNC(CC(=O)Nc1ccc(OC)cc1OC)C(=O)O (stereo unspecified),"6.31 µM [falling, partial curve]"
17,Cc1cccc(OCCSc2nnc(-c3ccoc3C)n2C)c1,"10 µM [rising, partial curve]"
18,CCCCN(c1ccccc1)c1ncnc2c1cnn2C,"2.51 µM [rising, partial curve, poor fit]"
19,CCOC(=O)c1c(C)c2c(n1C)CCC/C2=N\O,"10 µM [rising, partial curve]"
20,COc1cc2[nH]c(=S)n(C3CCCC3)c(=O)c2cc1OC,"12.6 µM [rising, single point]"
21,Cc1ccc2c(COn3nnc4ccc(S(=O)(=O)N(C)C)cc43)cc(=O)oc2c1C,"0.0631 µM [falling, partial curve]"
22,COc1ccc(Cn2c3nc4ccccc4nc3c3c(=O)n(Cc4ccco4)c(C)nc32)cc1,"12.6 µM [rising, partial curve]"

# Some of the entries so far, as tab-separated lines.
row	Structure (SMILES)	AC50
2	Cn1c(=O)cc(-c2ccccc2)c2ccccc21	15.8 µM [rising, single point]
3	CCC(=O)c1ccccc1OCCN1C(=O)NC(C)(C)C1=O	20 µM [rising, single point]
6	CN(C)c1ncc2nc(-c3ccc(F)cc3)c(=O)n(C[C@H]3CCCO3)c2n1	2.51 µM [rising, partial curve]
7	Cc1ccc(-c2cc3nc(C)cc(NCc4ccco4)n3n2)cc1	12.6 µM [rising, partial curve]
12	CC1(c2cccs2)CC(c2cccs2)=C(C#N)C(=O)N1 (stereo unspecified)	0.00316 µM [rising, full curve, poor fit]

# (continued)

row,Structure (SMILES),AC50
1,Cc1ccc(NC(=O)N(CCCN2CCOCC2)Cc2cc3cc4c(cc3[nH]c2=O)OCO4)cc1,"12.6 µM [rising, partial curve]"
2,Cc1cc(C)c2c(c1)OC(O)(C(F)F)CC2=O (stereo unspecified),"3.98 µM [falling, partial curve]"
3,CCC(=O)c1ccc(N2CCN(C(=O)c3ccc(Br)cc3)CC2)c(F)c1,"2 µM [rising, single point]"
4,OC(COc1cccc(OCC(O)CN2CCCC2)c1)CN1CCCC1 (stereo unspecified),"0.00316 µM [falling, full curve, poor fit]"
5,CC1CC2(CC(C)(C(=O)CSc3n[nH]c(-c4ccccc4Cl)n3)OC2=O)C(=O)O1 (stereo unspecified),"0.00398 µM [falling, full curve, poor fit]"
6,CCN1C(=O)C2(C(C#N)=C(N)Oc3n[nH]c(C(C)C)c32)c2ccccc21 (stereo unspecified),"12.6 µM [falling, single point]"
7,COc1ccc(-c2cn3c(n2)CCC3)cc1,"5.01 µM [falling, single point]"
8,CN1CCN(c2ncc3nc(-c4cn(C)c5ccccc45)c(=O)n(Cc4cccs4)c3n2)CC1,"2.51 µM [rising, partial curve]"
9,Cc1cc(OCC(=O)N2CCCC2)ccc1Cl,"0.631 µM [rising, single point]"
10,CC(C)(Oc1cccc2ccccc12)C(=O)O,"0.00794 µM [rising, full curve, poor fit]"
11,Cc1cc2nc(-c3cccc(NC(=O)c4ccc(Br)o4)c3C)oc2cc1C,"1 µM [falling, partial curve]"
12,CCCCOCCCNS(=O)(=O)c1ccccc1,"5.01 µM [falling, partial curve, poor fit]"
13,COc1ccc2[nH]c3nc(SCc4nnc(-c5ccccc5)o4)nnc3c2c1,"2 µM [rising, partial curve]"
14,O=C(CC1SC(=O)N(c2ccccc2)C1=O)Nc1ccccc1 (stereo unspecified),"5.01 µM [falling, partial curve]"
15,COc1ccccc1N1CCN(C(=O)c2cc(-c3ccc(Cl)cc3)on2)CC1,"25.1 µM [rising, single point]"
16,CCOc1ccc(N(CC(=O)N2CC=C(c3ccccc3)CC2)S(=O)(=O)c2c(C)noc2C)cc1,"10 µM [falling, partial curve]"
17,O=C(Oc1ccccc1)N1CCN(c2ccc(F)cc2)CC1,"0.398 µM [rising, full curve, poor fit]"
18,CCOc1ccc2nc(NCCNS(=O)(=O)c3ccccc3)c(C#N)cc2c1,"10 µM [rising, partial curve]"
19,Cc1c(C(=O)O)oc2ccc(S(=O)(=O)N3CCC(C)CC3)cc12,"0.631 µM [falling, single point]"
20,CN1CCc2cccc3c2[C@@H]1Cc1ccc(O)c(O)c1-3,"25.1 µM [falling, single point]"
21,Cc1nc(-c2cnn(-c3ccccc3)c2)c2cc(C)oc2n1,"3.98 µM [rising, partial curve]"
22,CCOC(=O)N1CCN(C(=O)c2cn(C)c3ccc(S(=O)(=O)N4CCCC4)cc3c2=O)CC1,"0.0631 µM [falling, full curve]"
